{"sequences": {"note": "Sequences of proteins named here, by UniProt entry; tags and fusion partners are left off. A change or cut given only in a name is not applied to a line headed by its entry. Residues count along the entry.", "UniProt Q10589, residues 1-161": "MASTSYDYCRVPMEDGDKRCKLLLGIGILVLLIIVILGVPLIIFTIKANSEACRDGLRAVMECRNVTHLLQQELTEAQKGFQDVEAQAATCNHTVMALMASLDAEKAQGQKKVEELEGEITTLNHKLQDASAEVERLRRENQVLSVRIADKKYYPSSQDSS", "UniProt Q1A262": "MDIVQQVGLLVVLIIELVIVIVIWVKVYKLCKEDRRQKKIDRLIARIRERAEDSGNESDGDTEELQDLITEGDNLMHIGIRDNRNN"}, "source": "paper PMC3534379", "target": "human tetherin fused to the C-terminal fragment of Kusabira green (KGC) (human) (UniProt Q10589)", "test": "split reporter; Kusabira green BiFC: KGN fused to Vpu, KGC fused to human tetherin; 293T cells cotransfected with 2.5 µg of each construct; two days later confocal microscopy and flow cytometry, MFI of Kusabira green normalised to the MFI of tetherin", "note": "No constants are given. Whether binding was seen depends on the method and setting. In cells and extracts the contact can be indirect.", "data": [{"substance": "SIVcpz MB897 Vpu fused to the N-terminal fragment of Kusabira green (KGN) (from UniProt Q1A262)", "values": [{"measurement": "binding", "result": "no binding"}]}]}
